Paper PMC4741485
No constants are given. Whether binding was seen depends on the method and setting. Binding seen in cells or lysates may run through a third protein. Some entries that bind do so weakly or less than the wild type. Sequences can lack the tags named with a protein.

The chains behind the UniProt entries cited, without tags or fusion partners.
UniProt Q00987: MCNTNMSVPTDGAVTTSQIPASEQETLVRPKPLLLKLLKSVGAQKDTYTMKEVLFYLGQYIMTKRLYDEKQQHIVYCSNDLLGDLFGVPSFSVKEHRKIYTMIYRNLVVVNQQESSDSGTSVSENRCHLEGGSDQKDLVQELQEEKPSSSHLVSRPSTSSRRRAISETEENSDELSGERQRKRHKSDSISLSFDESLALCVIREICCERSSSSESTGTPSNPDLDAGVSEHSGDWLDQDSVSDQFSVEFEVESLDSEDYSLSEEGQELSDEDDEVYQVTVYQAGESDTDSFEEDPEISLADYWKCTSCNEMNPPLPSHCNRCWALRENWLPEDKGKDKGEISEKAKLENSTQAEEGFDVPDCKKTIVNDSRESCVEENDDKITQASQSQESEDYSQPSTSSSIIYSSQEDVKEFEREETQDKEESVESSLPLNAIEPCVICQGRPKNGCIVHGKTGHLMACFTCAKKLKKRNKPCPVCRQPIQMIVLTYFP

target: T1, Flag-STIP (sip1/tuftelin interacting protein) (human) (UniProt Q9UBB9); assay: co-IP; Flag-STIP transfected into U2OS or H1299 cells; lysate precipitated with anti-Flag antibody or control IgG (1 mg extract, 3 ug antibody, overnight 4 °C, protein G magnetic beads); endogenous partners detected by WB; in Figure 5D also after shRNA knock-down and 20 uM MG132 for 4 h
T1 sequence: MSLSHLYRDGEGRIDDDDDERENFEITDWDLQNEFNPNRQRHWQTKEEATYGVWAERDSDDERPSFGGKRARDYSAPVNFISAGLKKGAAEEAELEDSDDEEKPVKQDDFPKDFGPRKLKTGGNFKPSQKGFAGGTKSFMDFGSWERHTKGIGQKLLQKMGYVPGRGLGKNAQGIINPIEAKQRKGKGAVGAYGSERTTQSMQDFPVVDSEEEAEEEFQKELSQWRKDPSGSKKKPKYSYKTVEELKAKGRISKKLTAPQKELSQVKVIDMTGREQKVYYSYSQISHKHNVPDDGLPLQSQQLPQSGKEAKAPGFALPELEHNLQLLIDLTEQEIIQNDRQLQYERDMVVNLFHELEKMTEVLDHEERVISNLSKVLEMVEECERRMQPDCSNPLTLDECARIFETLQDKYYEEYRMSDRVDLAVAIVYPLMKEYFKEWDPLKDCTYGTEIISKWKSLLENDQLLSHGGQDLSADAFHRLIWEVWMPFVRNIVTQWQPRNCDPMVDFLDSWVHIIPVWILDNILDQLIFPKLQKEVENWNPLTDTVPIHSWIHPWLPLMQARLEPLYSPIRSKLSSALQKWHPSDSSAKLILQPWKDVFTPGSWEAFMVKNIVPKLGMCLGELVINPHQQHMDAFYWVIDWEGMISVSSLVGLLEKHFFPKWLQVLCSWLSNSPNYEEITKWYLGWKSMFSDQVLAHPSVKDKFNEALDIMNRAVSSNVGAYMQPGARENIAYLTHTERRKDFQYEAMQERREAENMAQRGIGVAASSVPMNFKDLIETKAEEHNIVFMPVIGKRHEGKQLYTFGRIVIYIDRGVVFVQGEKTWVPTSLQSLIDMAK

binding, binds:
p53, endogenous (from UniProt P04637 1-393)
USP7 (ubiquitin-specific protease 7), endogenous (from UniProt Q93009 1-1102) (enzyme)
Mdm2, endogenous (from UniProt Q00987 1-491) (enzyme)

target: T1, Flag-STIP (sip1/tuftelin interacting protein) (human); assay: co-IP; two-step immunoprecipitation; U2OS cotransfected with Flag-STIP and Mdm2 or p53, 20 uM MG132 4 h; first anti-Flag M2 agarose (wash 150 mM NaCl), elution with Flag peptide in 250 mM NaCl; second anti-Mdm2, anti-p53 or control IgG with protein G-Sepharose; WB

binding, binds:
p53 expressed from pCMV-p53 (from UniProt P04637 1-393)
USP7 (ubiquitin-specific protease 7), endogenous (from UniProt Q93009 1-1102) (enzyme)
Mdm2 expressed from pCMV-Mdm2 (from UniProt Q00987 1-491) (enzyme)

target: T2, GST-STIP (human) (UniProt Q9UBB9); assay: pull-down; MagneGST Pull-Down System; purified GST-STIP or GST immobilised on glutathione resin at 4 °C overnight; in vitro translated prey (His-USP7, Mdm2 or p53) incubated for 1 h; three washes; WB; only the target purified
T2 sequence: T1 sequence

binding, binds:
His-USP7 (from UniProt Q93009 1-1102) (enzyme)
in vitro translated Mdm2 (from UniProt Q00987 1-491) (enzyme)
in vitro translated p53 (from UniProt P04637 1-393)
